Experiment [1] relates to MCF-7 cells. In words: CCK-8 anti-proliferative assay, MCF-7. The class given is cell-based. The settings on record: Homo sapiens, MCF7, 48 h, read-out: IC50 MCF-7, MCF-7, CCK-8, 48 h. The gist of the method: (§1)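 Log-phase cells in DMEM were plated at 1 × 10^4 per well and allowed 12 h at 37 °C and 5% CO2. Test compounds (0–80 μM) were added for 48 h. Medium was replaced with medium containing 10% CCK-8 for 4 h, and A450 was read. Percent inhibition was calculated against the untreated control and doxorubicin (positive control), and IC50 was obtained by curve fitting.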
(In general: Tetrazolium dyes change colour on reduction, which living cells bring about.)

In experiment [2] the test system is HeLa cells. Kind of experiment: CCK-8 anti-proliferative assay, HeLa. It counts as cell-based. The note with it: Homo sapiens, 48 h, read-out: IC50 HeLa, HeLa, CCK-8, 48 h. The gist of the method:
as §1

pIC50: −log10 of the molar value. Where a name gives a salt, the structure may show the parent alone.

Usually pIC50 stands for the IC50 on a negative log10 scale, so that one unit is a factor of ten. Consider `COc1cccc2c1C(=O)c1c(O)c3c(c(O)c1C2=O)C[C@@](O)(C(=O)CO)C[C@@H]3O[C@H]1C[C@H](N)[C@H](O)[C@H](C)O1` [Doxorubicin hydrochloride, doxorubicin hydrochloride, reference compound], for which the pIC50 in experiment [1] was 5.96; in experiment [2], 5.46.

The values above are taken from paper PMC9072715 (RSC Advances, 2019).
